Source: the supplement of paper PMC11006884
Only a part is listed here, and it is no random draw.

Chains of the proteins cited; added tags and fusions are not shown. Lines headed by an entry give the natural chain unless they say otherwise; changes in a name come on top.
UniProt P11586, whole entry, looked up: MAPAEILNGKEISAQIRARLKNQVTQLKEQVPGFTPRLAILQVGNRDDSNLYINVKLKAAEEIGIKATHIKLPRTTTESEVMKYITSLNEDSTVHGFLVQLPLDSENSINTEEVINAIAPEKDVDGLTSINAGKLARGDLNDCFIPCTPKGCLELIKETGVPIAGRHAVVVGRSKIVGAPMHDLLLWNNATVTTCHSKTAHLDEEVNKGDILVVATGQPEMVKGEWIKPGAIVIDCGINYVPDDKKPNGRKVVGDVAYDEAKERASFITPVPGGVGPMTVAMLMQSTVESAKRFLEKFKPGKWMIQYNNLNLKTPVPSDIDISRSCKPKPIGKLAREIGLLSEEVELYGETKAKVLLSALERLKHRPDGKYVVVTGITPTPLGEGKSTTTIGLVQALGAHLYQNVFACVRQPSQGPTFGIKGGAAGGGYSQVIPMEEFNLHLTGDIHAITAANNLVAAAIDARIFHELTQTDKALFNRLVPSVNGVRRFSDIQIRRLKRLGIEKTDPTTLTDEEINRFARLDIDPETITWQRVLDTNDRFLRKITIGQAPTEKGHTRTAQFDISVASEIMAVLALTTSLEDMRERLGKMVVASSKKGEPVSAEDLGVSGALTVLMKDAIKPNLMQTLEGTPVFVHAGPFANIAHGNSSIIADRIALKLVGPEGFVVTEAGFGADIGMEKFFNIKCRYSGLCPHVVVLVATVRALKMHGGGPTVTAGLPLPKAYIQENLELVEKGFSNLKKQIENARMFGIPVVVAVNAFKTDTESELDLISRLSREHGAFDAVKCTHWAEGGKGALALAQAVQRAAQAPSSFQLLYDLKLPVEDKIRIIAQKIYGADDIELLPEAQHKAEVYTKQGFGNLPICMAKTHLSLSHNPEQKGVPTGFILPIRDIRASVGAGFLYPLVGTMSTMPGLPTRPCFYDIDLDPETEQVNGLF
UniProt P17706: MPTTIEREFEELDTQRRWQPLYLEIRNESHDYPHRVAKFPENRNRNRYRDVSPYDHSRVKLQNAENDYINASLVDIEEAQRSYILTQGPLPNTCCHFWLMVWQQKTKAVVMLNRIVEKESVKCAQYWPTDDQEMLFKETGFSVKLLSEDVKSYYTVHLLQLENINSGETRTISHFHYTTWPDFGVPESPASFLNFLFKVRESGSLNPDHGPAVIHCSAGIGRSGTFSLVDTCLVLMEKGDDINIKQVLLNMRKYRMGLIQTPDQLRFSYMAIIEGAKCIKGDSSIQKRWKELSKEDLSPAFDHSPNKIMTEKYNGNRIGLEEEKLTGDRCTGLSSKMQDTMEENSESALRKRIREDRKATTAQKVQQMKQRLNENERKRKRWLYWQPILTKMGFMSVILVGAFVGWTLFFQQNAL
UniProt P13196: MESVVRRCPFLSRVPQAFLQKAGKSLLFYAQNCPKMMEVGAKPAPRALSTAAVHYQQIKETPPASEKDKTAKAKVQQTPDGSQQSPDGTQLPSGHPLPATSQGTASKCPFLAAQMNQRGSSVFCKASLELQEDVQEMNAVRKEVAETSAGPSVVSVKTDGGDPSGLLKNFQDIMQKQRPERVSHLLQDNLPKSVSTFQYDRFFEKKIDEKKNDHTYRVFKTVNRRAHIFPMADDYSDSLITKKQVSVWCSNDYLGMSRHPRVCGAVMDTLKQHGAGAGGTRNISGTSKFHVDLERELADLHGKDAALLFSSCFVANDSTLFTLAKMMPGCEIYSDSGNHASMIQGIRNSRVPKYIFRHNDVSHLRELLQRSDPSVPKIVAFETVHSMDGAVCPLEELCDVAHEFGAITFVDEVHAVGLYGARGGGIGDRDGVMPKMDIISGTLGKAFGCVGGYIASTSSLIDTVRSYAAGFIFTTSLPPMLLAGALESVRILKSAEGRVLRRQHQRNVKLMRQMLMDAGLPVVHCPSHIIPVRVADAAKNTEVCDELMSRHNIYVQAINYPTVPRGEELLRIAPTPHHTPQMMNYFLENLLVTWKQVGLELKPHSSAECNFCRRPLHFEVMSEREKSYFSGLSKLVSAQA
UniProt P15170, whole entry, looked up: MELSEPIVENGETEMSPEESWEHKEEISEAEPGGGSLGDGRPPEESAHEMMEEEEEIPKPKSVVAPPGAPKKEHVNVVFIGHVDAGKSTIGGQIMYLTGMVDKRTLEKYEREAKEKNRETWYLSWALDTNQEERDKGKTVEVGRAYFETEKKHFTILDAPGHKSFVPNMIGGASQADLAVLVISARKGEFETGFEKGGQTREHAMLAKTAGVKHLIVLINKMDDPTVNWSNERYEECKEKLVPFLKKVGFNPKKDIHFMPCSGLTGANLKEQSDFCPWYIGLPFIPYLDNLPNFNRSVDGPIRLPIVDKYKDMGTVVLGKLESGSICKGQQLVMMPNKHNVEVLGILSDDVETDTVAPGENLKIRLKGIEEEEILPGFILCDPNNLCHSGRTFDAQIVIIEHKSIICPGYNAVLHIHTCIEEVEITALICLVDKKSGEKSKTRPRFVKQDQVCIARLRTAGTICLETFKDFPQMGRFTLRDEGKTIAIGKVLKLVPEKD
UniProt P0DMV8, whole entry, looked up: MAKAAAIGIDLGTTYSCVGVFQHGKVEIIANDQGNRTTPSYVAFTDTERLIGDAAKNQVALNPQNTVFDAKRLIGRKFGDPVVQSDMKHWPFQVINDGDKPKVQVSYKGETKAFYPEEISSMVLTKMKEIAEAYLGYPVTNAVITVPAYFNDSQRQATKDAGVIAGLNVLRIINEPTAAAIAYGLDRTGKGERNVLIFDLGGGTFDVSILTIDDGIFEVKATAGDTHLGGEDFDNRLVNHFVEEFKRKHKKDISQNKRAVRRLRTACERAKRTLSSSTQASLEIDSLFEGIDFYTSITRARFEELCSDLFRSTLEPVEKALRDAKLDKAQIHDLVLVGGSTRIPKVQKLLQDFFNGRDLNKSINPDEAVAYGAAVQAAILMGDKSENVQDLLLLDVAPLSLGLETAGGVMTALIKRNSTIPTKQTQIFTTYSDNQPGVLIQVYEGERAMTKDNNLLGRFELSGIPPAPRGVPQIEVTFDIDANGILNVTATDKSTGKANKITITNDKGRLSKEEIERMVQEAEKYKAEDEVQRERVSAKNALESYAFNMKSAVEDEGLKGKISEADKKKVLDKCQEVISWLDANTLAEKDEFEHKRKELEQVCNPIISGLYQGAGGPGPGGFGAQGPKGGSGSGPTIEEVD
UniProt P12004, whole entry, looked up: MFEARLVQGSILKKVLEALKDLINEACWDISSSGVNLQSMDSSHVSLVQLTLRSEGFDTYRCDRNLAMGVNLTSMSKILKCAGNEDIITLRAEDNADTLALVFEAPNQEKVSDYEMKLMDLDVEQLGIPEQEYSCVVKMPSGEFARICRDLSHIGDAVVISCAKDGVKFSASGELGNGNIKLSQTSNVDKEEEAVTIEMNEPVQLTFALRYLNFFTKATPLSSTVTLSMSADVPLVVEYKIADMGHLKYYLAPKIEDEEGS
UniProt P13804: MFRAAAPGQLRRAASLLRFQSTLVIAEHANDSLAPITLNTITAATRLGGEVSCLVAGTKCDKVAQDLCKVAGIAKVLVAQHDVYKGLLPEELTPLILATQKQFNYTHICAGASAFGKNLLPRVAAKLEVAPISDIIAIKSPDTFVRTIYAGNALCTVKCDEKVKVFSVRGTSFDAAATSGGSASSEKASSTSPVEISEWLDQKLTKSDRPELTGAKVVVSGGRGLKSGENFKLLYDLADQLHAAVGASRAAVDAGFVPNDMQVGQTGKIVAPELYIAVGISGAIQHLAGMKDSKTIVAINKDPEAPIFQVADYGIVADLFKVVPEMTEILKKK
UniProt P16615: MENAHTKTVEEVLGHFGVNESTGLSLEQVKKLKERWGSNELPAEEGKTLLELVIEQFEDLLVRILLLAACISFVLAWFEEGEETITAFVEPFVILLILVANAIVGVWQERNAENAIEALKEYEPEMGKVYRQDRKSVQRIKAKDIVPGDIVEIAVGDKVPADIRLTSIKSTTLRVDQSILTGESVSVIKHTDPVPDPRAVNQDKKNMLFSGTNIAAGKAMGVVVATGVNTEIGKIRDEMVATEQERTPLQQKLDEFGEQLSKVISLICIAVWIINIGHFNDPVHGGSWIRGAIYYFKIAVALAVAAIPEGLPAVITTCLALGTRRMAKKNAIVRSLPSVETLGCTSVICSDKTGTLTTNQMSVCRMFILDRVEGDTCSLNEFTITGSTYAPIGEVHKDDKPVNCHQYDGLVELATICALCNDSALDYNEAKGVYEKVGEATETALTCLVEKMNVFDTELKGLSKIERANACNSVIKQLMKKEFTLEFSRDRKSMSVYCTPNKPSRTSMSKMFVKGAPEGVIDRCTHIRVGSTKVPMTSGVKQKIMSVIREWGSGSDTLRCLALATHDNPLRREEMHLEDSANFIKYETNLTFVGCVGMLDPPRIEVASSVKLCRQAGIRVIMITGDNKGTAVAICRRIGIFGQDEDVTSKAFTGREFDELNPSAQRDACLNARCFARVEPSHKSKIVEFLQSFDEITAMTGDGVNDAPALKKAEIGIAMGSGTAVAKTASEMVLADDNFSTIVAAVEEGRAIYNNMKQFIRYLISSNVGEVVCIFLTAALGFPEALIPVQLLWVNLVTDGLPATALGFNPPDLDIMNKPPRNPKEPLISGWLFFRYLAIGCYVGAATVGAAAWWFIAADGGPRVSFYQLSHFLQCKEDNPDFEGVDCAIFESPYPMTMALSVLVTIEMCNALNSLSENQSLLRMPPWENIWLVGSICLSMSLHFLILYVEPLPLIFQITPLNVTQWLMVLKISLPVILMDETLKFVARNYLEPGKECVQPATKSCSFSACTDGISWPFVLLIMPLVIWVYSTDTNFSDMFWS
UniProt P09874, whole entry, looked up: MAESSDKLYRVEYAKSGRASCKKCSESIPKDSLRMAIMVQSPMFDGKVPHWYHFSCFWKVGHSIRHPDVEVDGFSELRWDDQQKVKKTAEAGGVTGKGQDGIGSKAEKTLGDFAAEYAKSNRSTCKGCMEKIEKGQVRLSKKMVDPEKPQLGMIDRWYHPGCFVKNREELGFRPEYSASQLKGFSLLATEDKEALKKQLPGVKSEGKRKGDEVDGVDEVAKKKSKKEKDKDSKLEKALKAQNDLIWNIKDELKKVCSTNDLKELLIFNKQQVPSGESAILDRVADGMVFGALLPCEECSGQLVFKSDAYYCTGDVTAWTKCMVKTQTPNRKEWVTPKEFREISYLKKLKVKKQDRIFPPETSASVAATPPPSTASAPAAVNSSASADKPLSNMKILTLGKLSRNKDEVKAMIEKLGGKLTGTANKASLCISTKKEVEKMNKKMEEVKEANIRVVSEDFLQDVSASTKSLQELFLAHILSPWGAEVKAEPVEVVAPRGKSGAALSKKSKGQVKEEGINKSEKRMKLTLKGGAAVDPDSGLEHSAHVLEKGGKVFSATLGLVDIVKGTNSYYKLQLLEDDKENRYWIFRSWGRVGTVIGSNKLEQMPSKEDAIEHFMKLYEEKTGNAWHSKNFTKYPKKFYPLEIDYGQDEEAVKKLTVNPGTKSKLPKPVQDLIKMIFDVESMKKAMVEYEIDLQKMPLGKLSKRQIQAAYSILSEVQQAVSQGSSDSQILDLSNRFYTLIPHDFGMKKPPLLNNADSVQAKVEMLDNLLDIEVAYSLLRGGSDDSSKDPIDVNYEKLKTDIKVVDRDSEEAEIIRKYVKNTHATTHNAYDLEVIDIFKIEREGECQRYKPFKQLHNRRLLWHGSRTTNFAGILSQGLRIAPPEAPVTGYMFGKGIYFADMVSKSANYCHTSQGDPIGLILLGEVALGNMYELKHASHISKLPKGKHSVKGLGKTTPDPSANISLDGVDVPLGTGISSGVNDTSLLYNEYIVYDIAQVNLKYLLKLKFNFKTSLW
UniProt P13056: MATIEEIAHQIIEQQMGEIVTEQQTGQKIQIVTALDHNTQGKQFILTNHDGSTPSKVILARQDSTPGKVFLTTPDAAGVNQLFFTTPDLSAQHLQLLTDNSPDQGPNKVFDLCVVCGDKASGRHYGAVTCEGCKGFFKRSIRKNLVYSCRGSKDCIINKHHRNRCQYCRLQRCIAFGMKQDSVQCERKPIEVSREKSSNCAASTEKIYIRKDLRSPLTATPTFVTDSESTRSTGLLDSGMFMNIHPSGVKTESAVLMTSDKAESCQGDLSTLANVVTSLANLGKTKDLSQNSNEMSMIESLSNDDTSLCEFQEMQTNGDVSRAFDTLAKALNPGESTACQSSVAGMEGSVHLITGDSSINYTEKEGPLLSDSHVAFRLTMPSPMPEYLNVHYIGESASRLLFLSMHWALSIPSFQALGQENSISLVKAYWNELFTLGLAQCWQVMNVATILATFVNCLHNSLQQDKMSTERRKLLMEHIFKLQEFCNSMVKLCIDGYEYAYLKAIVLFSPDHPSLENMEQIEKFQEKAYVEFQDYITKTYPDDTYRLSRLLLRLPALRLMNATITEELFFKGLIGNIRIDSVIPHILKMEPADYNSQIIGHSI

The targets below were run with COC(=O)C#Cc1ccccc1 [methyl 3-phenylpropiolate] (assay: log2 ratio of iodoacetamide-alkyne labeling of the cysteine site, DMSO over compound (competition); higher = stronger covalent engagement of the cysteine by the compound, active = 1 or more). Conditions: 500 µM; treatment time 1 h; system: HEK293T cell lysate.
Method in brief: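 HEK293T lysate (2 mg/mL) was treated with DMSO or electrophile (500 µM, 1 h, ambient temperature), then iodoacetamide alkyne (1 h), clicked to sCIP-TMT reagents, pooled, trypsin-digested overnight at 37 °C, streptavidin-enriched and acid-eluted. Peptides were run on Orbitrap Eclipse LC-MS/MS with FAIMS and quantified in FragPipe. The log2 competition ratio per cysteine is mean control-channel over mean compound-channel reporter intensity. Duplicate channels and three replicates were used, and cysteines quantified in only one replicate were excluded.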

log2 ratio of iodoacetamide-alkyne labeling, inactive:
MTHFD1 C785 (UniProt P11586) -0.0259, PTPN2 C330 (UniProt P17706) 0.608, ALAS1 C249 (UniProt P13196) 0.343, PPP3CB C477 (UniProt P16298) 0.844, GSPT1 C327 (UniProt P15170) 0.0988, UniProt P0DMV8_C603 0.0788, PCNA C62 (UniProt P12004) 0.0598, MTHFD1 C147 (UniProt P11586) -0.0994, U2AF1L5 C163 (UniProt P0DN76) 0.181, EEF2 C591 (UniProt P13639) 0.128, ETFA C109 (UniProt P13804) 0.224, MTHFD1 C918 (UniProt P11586) 0.134, ATP2A2 C560 (UniProt P16615) -0.00934, PARP1 C24 (UniProt P09874) 0.227, NR2C1 C265 (UniProt P13056) 0.201, EEF2 C388 (UniProt P13639) 0.185
